Assay results published in paper PMC12608094, “STN1 Shields CTC1 From TRIM32‐Mediated Ubiquitination to Prevent Cellular Aging” (Aging Cell, 2025).
These are yes or no findings as the source states them, for the method shown. In cells and extracts the contact can be indirect. Some binding calls cover weakened binding; strength is not graded here. Sequences can lack the tags named with a protein.

Amino acid sequences for entries named in this document (tags omitted).
UniProt Q13049: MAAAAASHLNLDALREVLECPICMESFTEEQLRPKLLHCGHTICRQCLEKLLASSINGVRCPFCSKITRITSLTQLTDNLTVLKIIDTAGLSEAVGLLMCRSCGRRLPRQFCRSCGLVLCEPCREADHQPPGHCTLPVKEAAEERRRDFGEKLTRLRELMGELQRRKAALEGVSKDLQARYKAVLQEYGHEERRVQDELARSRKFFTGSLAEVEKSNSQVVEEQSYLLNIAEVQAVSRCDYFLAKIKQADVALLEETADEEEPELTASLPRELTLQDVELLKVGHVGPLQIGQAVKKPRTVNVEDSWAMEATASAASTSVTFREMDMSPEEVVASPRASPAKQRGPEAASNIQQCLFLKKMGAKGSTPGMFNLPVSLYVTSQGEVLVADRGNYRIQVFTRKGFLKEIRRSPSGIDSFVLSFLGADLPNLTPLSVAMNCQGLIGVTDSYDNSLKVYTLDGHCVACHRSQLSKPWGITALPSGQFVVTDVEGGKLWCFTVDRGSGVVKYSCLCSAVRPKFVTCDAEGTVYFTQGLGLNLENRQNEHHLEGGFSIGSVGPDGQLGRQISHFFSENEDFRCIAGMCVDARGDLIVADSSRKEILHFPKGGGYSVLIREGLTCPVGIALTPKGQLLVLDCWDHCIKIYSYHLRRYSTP

Columns and labels:
[1] = target: T1, Flag-tagged CTC1 (wild type) (human, UniProt Q2NKJ3 1-1217); assay: pull-down; GST pull-down from HEK293T cell lysates with Glutathione-sepharose beads; GST-TRIM32 with WT or 1196Δ7 Flag-CTC1, with or without HA-STN1
T1 sequence (looked up): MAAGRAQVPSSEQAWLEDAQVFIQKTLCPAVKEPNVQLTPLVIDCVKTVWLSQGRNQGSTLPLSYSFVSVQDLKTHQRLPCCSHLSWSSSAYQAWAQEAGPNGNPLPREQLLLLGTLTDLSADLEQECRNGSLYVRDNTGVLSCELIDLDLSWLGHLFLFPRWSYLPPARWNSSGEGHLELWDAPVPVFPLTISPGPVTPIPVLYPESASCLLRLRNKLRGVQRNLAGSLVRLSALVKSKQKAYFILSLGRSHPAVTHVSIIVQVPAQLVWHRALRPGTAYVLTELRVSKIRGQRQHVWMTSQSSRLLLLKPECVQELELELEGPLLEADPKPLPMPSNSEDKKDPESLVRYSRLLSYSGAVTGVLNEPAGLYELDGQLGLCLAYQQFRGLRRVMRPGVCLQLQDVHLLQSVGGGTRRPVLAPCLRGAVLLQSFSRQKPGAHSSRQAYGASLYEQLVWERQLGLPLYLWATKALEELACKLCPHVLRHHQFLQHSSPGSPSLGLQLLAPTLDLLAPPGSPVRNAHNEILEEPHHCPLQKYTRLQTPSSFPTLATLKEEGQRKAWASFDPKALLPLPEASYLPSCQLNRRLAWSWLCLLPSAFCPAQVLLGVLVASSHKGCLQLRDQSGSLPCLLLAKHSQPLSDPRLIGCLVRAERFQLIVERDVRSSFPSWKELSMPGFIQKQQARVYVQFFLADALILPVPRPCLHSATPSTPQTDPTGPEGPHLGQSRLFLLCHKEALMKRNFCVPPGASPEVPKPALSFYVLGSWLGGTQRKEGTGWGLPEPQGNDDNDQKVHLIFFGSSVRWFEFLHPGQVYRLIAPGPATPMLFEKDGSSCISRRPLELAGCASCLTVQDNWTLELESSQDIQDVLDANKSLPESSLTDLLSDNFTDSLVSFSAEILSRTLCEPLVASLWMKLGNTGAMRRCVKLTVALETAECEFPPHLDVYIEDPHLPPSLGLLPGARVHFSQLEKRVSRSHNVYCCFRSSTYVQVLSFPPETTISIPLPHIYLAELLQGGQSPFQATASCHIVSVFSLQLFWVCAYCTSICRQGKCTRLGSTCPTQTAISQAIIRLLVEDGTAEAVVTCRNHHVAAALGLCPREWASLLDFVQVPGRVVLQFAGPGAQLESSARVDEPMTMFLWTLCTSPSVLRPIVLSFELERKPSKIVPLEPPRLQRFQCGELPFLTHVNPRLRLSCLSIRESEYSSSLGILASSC

[2] = target: T2, Flag-tagged CTC1 expressed in Sf9 cells (human) (UniProt Q2NKJ3); assay: co-IP; Sf9 cells co-expressing Flag-CTC1 and His-STN1; lysate on Flag M2 beads 1 h at 4°C, washed with TBS, eluted with 3xFLAG peptide (co-purification)
T2 sequence: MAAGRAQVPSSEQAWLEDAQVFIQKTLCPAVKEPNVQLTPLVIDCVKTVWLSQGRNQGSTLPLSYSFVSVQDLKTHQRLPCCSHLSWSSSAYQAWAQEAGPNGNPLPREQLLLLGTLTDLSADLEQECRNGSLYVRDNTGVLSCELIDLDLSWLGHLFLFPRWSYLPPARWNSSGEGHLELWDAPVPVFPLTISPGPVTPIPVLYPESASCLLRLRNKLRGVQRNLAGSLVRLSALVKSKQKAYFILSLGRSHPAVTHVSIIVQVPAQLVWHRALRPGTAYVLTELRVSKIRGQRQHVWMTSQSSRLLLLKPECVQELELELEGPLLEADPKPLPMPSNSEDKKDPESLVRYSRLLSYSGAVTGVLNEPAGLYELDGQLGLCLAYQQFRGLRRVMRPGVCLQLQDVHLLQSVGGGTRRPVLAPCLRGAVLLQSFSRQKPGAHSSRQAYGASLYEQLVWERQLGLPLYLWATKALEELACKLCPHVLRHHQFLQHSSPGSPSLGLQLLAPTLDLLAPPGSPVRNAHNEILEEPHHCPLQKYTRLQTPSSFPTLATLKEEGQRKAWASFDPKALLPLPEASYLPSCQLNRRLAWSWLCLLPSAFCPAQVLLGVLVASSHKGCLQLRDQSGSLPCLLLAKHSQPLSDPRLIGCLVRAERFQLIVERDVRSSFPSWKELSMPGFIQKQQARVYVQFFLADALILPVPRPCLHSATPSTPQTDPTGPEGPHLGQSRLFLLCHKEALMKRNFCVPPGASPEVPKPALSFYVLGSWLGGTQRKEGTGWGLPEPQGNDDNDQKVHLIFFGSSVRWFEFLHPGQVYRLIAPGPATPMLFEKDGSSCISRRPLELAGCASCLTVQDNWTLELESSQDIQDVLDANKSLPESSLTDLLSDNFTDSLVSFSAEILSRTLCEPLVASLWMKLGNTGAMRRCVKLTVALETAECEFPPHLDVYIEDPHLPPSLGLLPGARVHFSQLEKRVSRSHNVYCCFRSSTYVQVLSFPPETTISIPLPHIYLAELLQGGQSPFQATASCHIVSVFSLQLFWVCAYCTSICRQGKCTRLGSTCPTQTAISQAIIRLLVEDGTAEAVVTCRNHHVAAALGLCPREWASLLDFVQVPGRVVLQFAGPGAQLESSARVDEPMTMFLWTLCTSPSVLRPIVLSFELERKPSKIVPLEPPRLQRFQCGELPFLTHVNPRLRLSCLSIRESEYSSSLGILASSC

[3] = target: GST-tagged TRIM32 from E. coli (human) (UniProt Q13049); assay: pull-down; GST-TRIM32 from E. coli held on Glutathione-sepharose beads, washed, added to lysate of Sf9 cells expressing Flag-CTC1, 4 h at 4°C; Western blot; only the target purified

B1: HA-tagged STN1 (wild type) (natural protein, human, UniProt Q9H668 1-368, looked up)
chain: MQPGSSRCEEETPSLLWGLDPVFLAFAKLYIRDILDMKESRQVPGVFLYNGHPIKQVDVLGTVIGVRERDAFYSYGVDDSTGVINCICWKKLNTESVSAAPSAARELSLTSQLKKLQETIEQKTKIEIGDTIRVRGSIRTYREEREIHATTYYKVDDPVWNIQIARMLELPTIYRKVYDQPFHSSALEKEEALSNPGALDLPSLTSLLSEKAKEFLMENRVQSFYQQELEMVESLLSLANQPVIHSASSDQVNFKKDTTSKAIHSIFKNAIQLLQEKGLVFQKDDGFDNLYYVTREDKDLHRKIHRIIQQDCQKPNHMEKGCHFLHILACARLSIRPGLSEAVLQQVLELLEDQSDIVSTMEHYYTAF
**Q.** For B1, which binding [1] is on record?
**A.** The binding was “binds”.

B2: His-tagged STN1 co-expressed with Flag-CTC1 in Sf9 cells (protein, UniProt Q9H668 1-368)
chain: MQPGSSRCEEETPSLLWGLDPVFLAFAKLYIRDILDMKESRQVPGVFLYNGHPIKQVDVLGTVIGVRERDAFYSYGVDDSTGVINCICWKKLNTESVSAAPSAARELSLTSQLKKLQETIEQKTKIEIGDTIRVRGSIRTYREEREIHATTYYKVDDPVWNIQIARMLELPTIYRKVYDQPFHSSALEKEEALSNPGALDLPSLTSLLSEKAKEFLMENRVQSFYQQELEMVESLLSLANQPVIHSASSDQVNFKKDTTSKAIHSIFKNAIQLLQEKGLVFQKDDGFDNLYYVTREDKDLHRKIHRIIQQDCQKPNHMEKGCHFLHILACARLSIRPGLSEAVLQQVLELLEDQSDIVSTMEHYYTAF
**Q.** B2 was tested. Which binding [2] did it give?
**A.** The binding was “binds”.

B3: Flag-tagged CTC1 expressed in Sf9 cells (protein, UniProt Q2NKJ3 1-1217)
chain: MAAGRAQVPSSEQAWLEDAQVFIQKTLCPAVKEPNVQLTPLVIDCVKTVWLSQGRNQGSTLPLSYSFVSVQDLKTHQRLPCCSHLSWSSSAYQAWAQEAGPNGNPLPREQLLLLGTLTDLSADLEQECRNGSLYVRDNTGVLSCELIDLDLSWLGHLFLFPRWSYLPPARWNSSGEGHLELWDAPVPVFPLTISPGPVTPIPVLYPESASCLLRLRNKLRGVQRNLAGSLVRLSALVKSKQKAYFILSLGRSHPAVTHVSIIVQVPAQLVWHRALRPGTAYVLTELRVSKIRGQRQHVWMTSQSSRLLLLKPECVQELELELEGPLLEADPKPLPMPSNSEDKKDPESLVRYSRLLSYSGAVTGVLNEPAGLYELDGQLGLCLAYQQFRGLRRVMRPGVCLQLQDVHLLQSVGGGTRRPVLAPCLRGAVLLQSFSRQKPGAHSSRQAYGASLYEQLVWERQLGLPLYLWATKALEELACKLCPHVLRHHQFLQHSSPGSPSLGLQLLAPTLDLLAPPGSPVRNAHNEILEEPHHCPLQKYTRLQTPSSFPTLATLKEEGQRKAWASFDPKALLPLPEASYLPSCQLNRRLAWSWLCLLPSAFCPAQVLLGVLVASSHKGCLQLRDQSGSLPCLLLAKHSQPLSDPRLIGCLVRAERFQLIVERDVRSSFPSWKELSMPGFIQKQQARVYVQFFLADALILPVPRPCLHSATPSTPQTDPTGPEGPHLGQSRLFLLCHKEALMKRNFCVPPGASPEVPKPALSFYVLGSWLGGTQRKEGTGWGLPEPQGNDDNDQKVHLIFFGSSVRWFEFLHPGQVYRLIAPGPATPMLFEKDGSSCISRRPLELAGCASCLTVQDNWTLELESSQDIQDVLDANKSLPESSLTDLLSDNFTDSLVSFSAEILSRTLCEPLVASLWMKLGNTGAMRRCVKLTVALETAECEFPPHLDVYIEDPHLPPSLGLLPGARVHFSQLEKRVSRSHNVYCCFRSSTYVQVLSFPPETTISIPLPHIYLAELLQGGQSPFQATASCHIVSVFSLQLFWVCAYCTSICRQGKCTRLGSTCPTQTAISQAIIRLLVEDGTAEAVVTCRNHHVAAALGLCPREWASLLDFVQVPGRVVLQFAGPGAQLESSARVDEPMTMFLWTLCTSPSVLRPIVLSFELERKPSKIVPLEPPRLQRFQCGELPFLTHVNPRLRLSCLSIRESEYSSSLGILASSC
**Q.** B3 was tested. Which binding [3] did it give?
**A.** Its binding is “binds”.
